This is one part of the list. Shown are side measurements of this screen, not its main read-out; they come without a call. Compounds called inactive in the main read-out are mostly missing here. Potencies come from curve fits of mixed quality, noted in brackets.
Experiment: qHTS Assay to Find Inhibitors of Chronic Active B-Cell Receptor Signaling
Conditions: ABC-DLBCL IkBa-CBG/CBR reporter, luminescence ratio (green luciferase fused to IkBa over red control in TMD8 lymphoma cells), 4 h
Procedure, shortened: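 Concentration-response series (up to 46 uM) were applied to TMD8 dual-reporter cells for 4 h at 37C with doxycycline. Green/red ratio, after filter-overlap correction, defined %Activity; red signal alone was normalised to basal cells and zero luminescence.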

[1] = measured here: CBR red luminescence, cell number
[2] = measured here: IkBa-CBG green luminescence

SMILES | AC50 [1] | AC50 [2]
CCC1(c2ccccc2)NC(=S)N(c2ccc(C)cc2)N1 (stereo not drawn) | 1.58 µM [rising, full curve] | 
CCC(Sc1nc(C)cc(C)n1)C(=O)Nc1cc(C)on1 (stereo not drawn) | 3.16 µM [falling, single point] | 
CCOCCCNC(=O)/C(C#N)=C/c1ccc([N+](=O)[O-])o1 | 25.1 µM [falling, single point] | 
O=[N+]([O-])c1ccc(O)c(N=Cc2sc3ccccc3c2O)c1 | 8.2 µM [falling, partial curve] | 
Nc1nc(SCC(=O)c2ccc(Oc3ccccc3)cc2)n[nH]1 | 6.51 µM [rising, single point] | 
O=C(c1ccc(-c2ccccc2)cc1)N1CCN(Cc2ccccn2)CC1 | 35.5 µM [falling, single point] | 
Cc1ccc(N(CC(=O)NCc2ccco2)C(=O)CCC(=O)Nc2ccccn2)cc1C | 35.5 µM [falling, single point] | 
O=C(NCC1CCCO1)c1cc2c(=O)[nH]c3ccccc3c2s1 (stereo not drawn) | 8.91 µM [falling, partial curve, poor fit] | 
COc1ccc(-c2cn3ccccc3n2)cc1 | 12.6 µM [falling, single point] | 
O=C(NCc1ccccc1Cl)C(=O)c1cn(CC(=O)N2CCOCC2)c2ccccc12 | 1.41 µM [falling, full curve] | 
CCOC(=O)C(CC)/C(C)=N\NC(=O)c1cccc(C)c1 (stereo not drawn) | 2 µM [falling, partial curve] | 
COc1cc(Cl)ccc1OCc1cc(C(=O)N(C)Cc2nnc(C)o2)no1 | 3.55 µM [falling, full curve] | 
CC1CC(C)(C)NC(=S)O1 (stereo not drawn) | 12.6 µM [rising, single point] | 
Cc1cccc(Nc2nc(N)c([N+](=O)[O-])c(NCc3ccco3)n2)c1 | 5.17 µM [falling, single point] | 
CCc1cccc(C)c1NC(=S)NCc1ccccc1 | 2.31 µM [rising, partial curve, poor fit] | 
Cc1ccc(N/N=C2\CS(=O)(=O)N(C)c3ccsc32)cc1 | 3.55 µM [rising, partial curve, poor fit] | 
COc1cc(C#Cc2c(-c3cncn3C)n(C)c3ccc(-c4ccc5[nH]ccc5c4)cc23)cc(OC)c1 | 20.6 µM [rising, single point] | 
Nc1c(-c2ccccc2)sc2ccc3ccccc3[n+]12 | 11.2 µM [rising, partial curve] | 
O=C(OCC(=O)N1CCCCCC1)c1ccc[nH]c1=O | 29.1 µM [rising, single point] | 
COc1ccc(N(Cc2cc3ccccc3[nH]c2=O)S(=O)(=O)c2ccccc2)cc1 | 28.2 µM [falling, single point] | 
CC(C)(C)[C@@H]1CCC(=O)N(CC[C@H](Sc2ccccc2)c2ccccc2)CC1 |  | 15.8 µM [rising, single point]
O=C(NC(=S)N1CCOCC1)c1ccc([N+](=O)[O-])cc1 |  | 25.9 µM [falling, single point]

SMILES | AC50 [1] | AC50 [2]
COc1ccc(NC(=O)c2ccccc2Sc2ccc(NC(C)=O)nc2)cc1 | 10 µM [falling, partial curve, poor fit] | 
N#C/C(=C\c1cccnc1)C(=O)Nc1ccc(C(=O)O)cc1 | 8.91 µM [falling, partial curve] | 
CC1=C(C#N)C(=O)NC(C)(C)C1 | 4.61 µM [rising, full curve, poor fit] | 
Cc1[nH]c2ccccc2c1-c1nc2ccccc2[nH]1 | 1.26 µM [falling, partial curve, poor fit] | 
O=C(CCNC(=O)c1ccc(Br)cc1)Nc1cccc(S(=O)(=O)N2CCCCCC2)c1 | 20.6 µM [falling, single point] | 
O=C(NCCc1ccccc1)NC(Cc1ccccc1)C(=O)O (stereo not drawn) | 11.2 µM [rising, partial curve, poor fit] | 
Cc1nc(Nc2cccc(O)c2)c2c3c(sc2n1)CCC3 | 0.316 µM [rising, full curve, poor fit] | 
O=C(Nc1ccc(Br)cn1)c1coc(=O)c(Br)c1 | 10 µM [falling, partial curve, poor fit] | 
O=C(Nc1c(F)cc(F)cc1Br)c1cc(-c2ccc(O)cc2)on1 | 0.631 µM [falling, full curve, poor fit] | 
C=CCOc1ccc(/C=C/C(=O)OCC(=O)N2CCC(c3ccccc3)=N2)cc1 | 11.6 µM [rising, partial curve, poor fit] | 
O=C(Nc1ccccc1)N1CCc2ccccc2C1 | 1.64 µM [falling, full curve] | 
c1ccc(CSc2ncnc3c2cnn3Cc2ccccc2)cc1 | 18.4 µM [rising, partial curve, poor fit] | 
O=C(O)c1cccc(NN=C2c3ccccc3-c3ccccc32)c1 | 14.1 µM [falling, partial curve] | 
CCN(CC)C(=O)c1ccc(C(=O)Nc2ccc(F)cc2)cc1 | 18.4 µM [falling, single point] | 
CN(C)c1ccc(/C=C/c2nc3ccccc3c(=O)[nH]2)cc1 | 3.98 µM [falling, single point] | 
C/C(=N/NC(=O)c1ccc(Br)o1)c1ccncc1 | 29.1 µM [falling, single point] | 
O=C(CNC(=O)c1ccco1)NCC(=O)OCc1cccc(Cl)c1 | 11.2 µM [rising, partial curve] | 
N=c1oc2ccccc2cc1C(=O)NC1CCCCCC1 | 4.47 µM [falling, full curve] | 
COc1ccc(/C=C2\Sc3ccc(C(=O)N4CCCC4)cc3N(C)C2=O)cc1OC | 25.1 µM [falling, single point] | 
CCCCC(CC)CNC(=O)C(=O)C1C(=O)Nc2ccccc21 (stereo not drawn) | 5.01 µM [falling, full curve, poor fit] | 
Cc1cc(C(=O)N/N=C/c2ccc([N+](=O)[O-])cc2)c(C)o1 | 0.562 µM [falling, full curve, poor fit] | 
CSc1ncccc1C(=O)OCC(=O)N(CC(C)C)C1CCS(=O)(=O)C1 (stereo not drawn) | 14.1 µM [falling, single point] | 

SMILES | AC50 [1] | AC50 [2]
O=C(Nc1cccc(NC(=O)c2ccc3c(c2)OCO3)c1)c1ccccc1 | 0.0891 µM [falling, full curve, poor fit] | 
Cc1cccc(OCC(=O)N2CCC(N3CCOCC3)CC2)c1 | 1.46 µM [falling, full curve] | 
CCc1ccc(CNC(=O)CCc2nnc(CCc3ccc(OC)cc3)o2)nc1 | 5.62 µM [rising, single point] | 
O=S(=O)(Nc1cc(Cl)ccc1-n1cncn1)c1ccccc1Cl | 1.46 µM [rising, partial curve] | 
CC12CCC(C(=O)N3CCN(c4ccccc4)CC3)(CC1=O)C2(C)C (stereo not drawn) | 29.1 µM [rising, single point] | 
Cc1ccc2oc(-c3ccco3)nc2c1 | 35.5 µM [rising, single point] | 
Clc1cccc(Cn2ncc3ccccc32)c1 | 7.94 µM [rising, partial curve, poor fit] | 
CCc1ccc(-n2c(SC(CC)C(=O)N(CC)CC)nc3n[nH]c(C)c3c2=N)cc1 (stereo not drawn) | 35.5 µM [falling, single point] | 35.5 µM [rising, partial curve, poor fit]
Cc1ccccc1NS(=O)(=O)c1ccc(C(=O)NCC(c2ccco2)N2CCCCC2)cc1 (stereo not drawn) | 13 µM [falling, partial curve, poor fit] | 
C/C(=N\NC(=O)C(N)=O)c1ccc(NC(=O)c2cccs2)cc1 | 8.91 µM [falling, partial curve] | 
O=C(Nc1ccc2c(c1)CCC2)c1ncoc1-c1ccccc1F | 0.447 µM [rising, partial curve, poor fit] | 
COc1ccc(NC(=O)CSc2nnc(-c3ccc(F)cc3)o2)cn1 | 16.4 µM [falling, single point] | 
CCN(CC1COc2ccccc2O1)C(=S)Nc1ccc(F)cc1 (stereo not drawn) | 6.51 µM [rising, single point] | 
COc1ccccc1NC(=O)c1oc2ccc(C)cc2c1C | 17.8 µM [rising, partial curve, poor fit] | 
CC1=CSC2=NC(=O)/C(=C\c3cccn3-c3ccccc3)C(=N)N12 | 0.731 µM [falling, partial curve, poor fit] | 0.731 µM [rising, full curve, poor fit]
CC(=C\C(=O)O)/C(=C\c1cccc2ccccc12)C(=O)O | 2.82 µM [falling, partial curve, poor fit] | 
CC1CCN(S(=O)(=O)c2ccc3c(c2)c(=O)c(C(=O)NCc2ccccc2Cl)cn3C)CC1 | 2.91 µM [falling, partial curve, poor fit] | 
CNC(=S)N/N=C1\C(=O)c2cccc3cccc1c23 | 11.2 µM [rising, partial curve, poor fit] | 3.55 µM [falling, full curve]
COc1ccc(NC(=O)c2sc3nc(N4CCCC4)c4c(c3c2N)CC(C)(C)OC4)cc1 | 14.1 µM [rising, partial curve, poor fit] | 
CCOC(=O)c1ccc(NC(=S)NC2CC(C)(C)NC(C)(C)C2)cc1 | 12.6 µM [falling, partial curve] | 
CC(=O)/C=C1/C(=O)Nc2ccccc21 |  | 35.5 µM [falling, single point]

Ordered by number of heavy atoms (descending): some entries from above.
SMILES | AC50 [1] | AC50 [2]
CC1CCN(S(=O)(=O)c2ccc3c(c2)c(=O)c(C(=O)NCc2ccccc2Cl)cn3C)CC1 | 2.91 µM [falling, partial curve, poor fit] | 
COc1ccc(NC(=O)c2sc3nc(N4CCCC4)c4c(c3c2N)CC(C)(C)OC4)cc1 | 14.1 µM [rising, partial curve, poor fit] | 
O=C(Nc1cccc(NC(=O)c2ccc3c(c2)OCO3)c1)c1ccccc1 | 0.0891 µM [falling, full curve, poor fit] | 
C/C(=N\NC(=O)C(N)=O)c1ccc(NC(=O)c2cccs2)cc1 | 8.91 µM [falling, partial curve] | 
